The values below come from paper PMC5290407.

Amino acid sequences for entries named in this document (tags omitted).
UniProt Q96B97: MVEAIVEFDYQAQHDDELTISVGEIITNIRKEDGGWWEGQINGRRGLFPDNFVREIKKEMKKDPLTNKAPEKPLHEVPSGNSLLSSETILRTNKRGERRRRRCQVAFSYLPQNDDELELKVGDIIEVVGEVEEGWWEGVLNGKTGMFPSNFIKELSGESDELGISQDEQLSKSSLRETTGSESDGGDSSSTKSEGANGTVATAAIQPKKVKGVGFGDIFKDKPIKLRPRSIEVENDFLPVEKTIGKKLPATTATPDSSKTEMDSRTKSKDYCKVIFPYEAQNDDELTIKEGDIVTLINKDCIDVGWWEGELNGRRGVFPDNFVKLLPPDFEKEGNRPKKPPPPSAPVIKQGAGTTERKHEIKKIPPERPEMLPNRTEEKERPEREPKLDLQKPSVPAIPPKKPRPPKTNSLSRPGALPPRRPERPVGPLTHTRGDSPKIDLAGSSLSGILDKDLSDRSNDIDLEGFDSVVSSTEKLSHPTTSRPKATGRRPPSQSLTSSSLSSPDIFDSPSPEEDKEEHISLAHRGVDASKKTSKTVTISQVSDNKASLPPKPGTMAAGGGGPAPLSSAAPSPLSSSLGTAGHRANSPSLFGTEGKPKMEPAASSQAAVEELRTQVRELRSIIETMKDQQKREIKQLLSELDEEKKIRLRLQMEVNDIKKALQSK

No constants are given. Whether binding was seen depends on the method and setting. In cells and extracts the contact can be indirect. Some results given as binding are weak or reduced against the parent protein; the word gives no strength. Where a sequence is shown, tags or fusion partners need not be part of it.

The labels stand for the following.
T1: UGT1A9-myc/his (human) (UniProt O60656)
T1 sequence: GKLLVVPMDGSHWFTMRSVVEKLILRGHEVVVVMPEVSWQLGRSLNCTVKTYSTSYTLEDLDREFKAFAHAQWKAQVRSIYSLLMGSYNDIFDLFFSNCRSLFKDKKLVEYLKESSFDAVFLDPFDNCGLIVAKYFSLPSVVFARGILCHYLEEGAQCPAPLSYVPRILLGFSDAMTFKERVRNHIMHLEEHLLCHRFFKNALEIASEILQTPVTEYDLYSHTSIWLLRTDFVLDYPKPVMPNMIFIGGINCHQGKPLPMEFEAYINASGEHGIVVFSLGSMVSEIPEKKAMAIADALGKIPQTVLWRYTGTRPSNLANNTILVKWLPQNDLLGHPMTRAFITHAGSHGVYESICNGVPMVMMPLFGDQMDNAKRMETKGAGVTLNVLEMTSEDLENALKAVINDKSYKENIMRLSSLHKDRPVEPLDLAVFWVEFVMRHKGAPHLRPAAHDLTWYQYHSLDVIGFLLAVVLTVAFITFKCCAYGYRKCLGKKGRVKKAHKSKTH

B1: PHKA2-myc-FLAG (protein, UniProt P46019 1-1235)
chain: MRSRSNSGVRLDGYARLVQQTILCYQNPVTGLLSASHEQKDAWVRDNIYSILAVWGLGMAYRKNADRDEDKAKAYELEQNVVKLMRGLLQCMMRQVAKVEKFKHTQSTKDSLHAKYNTATCGTVVGDDQWGHLQVDATSLFLLFLAQMTASGLRIIFTLDEVAFIQNLVFYIEAAYKVADYGMWERGDKTNQGIPELNASSVGMAKAALEAIDELDLFGAHGGRKSVIHVLPDEVEHCQSILFSMLPRASTSKEIDAGLLSIISFPAFAVEDVNLVNVTKNEIISKLQGRYGCCRFLRDGYKTPREDPNRLHYDPAELKLFENIECEWPVFWTYFIIDGVFSGDAVQVQEYREALEGILIRGKNGIRLVPELYAVPPNKVDEEYKNPHTVDRVPMGKVPHLWGQSLYILSSLLAEGFLAAGEIDPLNRRFSTSVKPDVVVQVTVLAENNHIKDLLRKHGVNVQSIADIHPIQVQPGRILSHIYAKLGRNKNMNLSGRPYRHIGVLGTSKLYVIRNQIFTFTPQFTDQHHFYLALDNEMIVEMLRIELAYLCTCWRMTGRPTLTFPISRTMLTNDGSDIHSAVLSTIRKLEDGYFGGARVKLGNLSEFLTTSFYTYLTFLDPDCDEKLFDNASEGTFSPDSDSDLVGYLEDTCNQESQDELDHYINHLLQSTSLRSYLPPLCKNTEDRHVFSAIHSTRDILSVMAKAKGLEVPFVPMTLPTKVLSAHRKSLNLVDSPQPLLEKVPESDFQWPRDDHGDVDCEKLVEQLKDCSNLQDQADILYILYVIKGPSWDTNLSGQHGVTVQNLLGELYGKAGLNQEWGLIRYISGLLRKKVEVLAEACTDLLSHQKQLTVGLPPEPREKIISAPLPPEELTKLIYEASGQDISIAVLTQEIVVYLAMYVRAQPSLFVEMLRLRIGLIIQVMATELARSLNCSGEEASESLMNLSPFDMKNLLHHILSGKEFGVERSVRPIHSSTSSPTISIHEVGHTGVTKTERSGINRLRSEMKQMTRRFSADEQFFSVGQAASSSAHSSKSARSSTPSSPTGTSSSDSGGHHIGWGERQGQWLRRRRLDGAINRVPVGFYQRVWKILQKCHGLSIDGYVLPSSTTREMTPHEIKFAVHVESVLNRVPQPEYRQLLVEAIMVLTLLSDTEMTSIGGIIHVDQIVQMASQLFLQDQVSIGAMDTLEKDQATGICHFFYDSAPSGAYGTMTYLTRAVASYLQELLPNSGCQMQ
B2: HA-ACOT8 (protein, UniProt O14734 1-319)
chain: MSSPQAPEDGQGCGDRGDPPGDLRSVLVTTVLNLEPLDEDLFRGRHYWVPAKRLFGGQIVGQALVAAAKSVSEDVHVHSLHCYFVRAGDPKLPVLYQVERTRTGSSFSVRSVKAVQHGKPIFICQASFQQAQPSPMQHQFSMPTVPPPEELLDCETLIDQYLRDPNLQKRYPLALNRIAAQEVPIEIKPVNPSPLSQLQRMEPKQMFWVRARGYIGEGDMKMHCCVAAYISDYAFLGTALLPHQWQHKVHFMVSLDHSMWFHAPFRADHWMLYECESPWAGGSRGLVHGRLWRQDGVLAVTCAQEGVIRVKPQVSESKL

For this experiment, the target named is T1, UGT1A9-myc/his (human). Briefly: co-IP; HEK293 stably expressing UGT1A9-myc/his, transiently transfected with the tagged partner; lysis buffer B (50 mM Tris-HCl pH 7.4, 150 mM NaCl, 1% Igepal, 1 mM DTT), 4°C; IP with purified anti-UGT1A (control rabbit IgG), immunoblot with anti-tag antibodies. A general note: A western blot detects proteins with antibodies after separation by electrophoresis.
With “FLAG-SH3KBP1 (from UniProt Q96B97 1-665)”, the binding result is recorded as “binds”.
In the case of B1, the binding result is listed as “binds”.
As to B2, the binding result is given as “binds”.
